Experimental data as given in the supplement of paper PMC8007513.
The list shows a part of the results. Many values rest on one well or one pass, so single values are uncertain.

test system: Saccharomyces cerevisiae BY4743; test: growth (OD600) with compound + IPBC relative to untreated control; higher = less growth inhibition; conditions: compound concentration: 133 uM; IPBC concentration: 0.5 ug/ml; 20 h
Description: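 NMCCC compounds (133 uM) combined with IPBC (0.5 ug/ml) against Saccharomyces cerevisiae BY4743 in YPD, 96-well plates. Growth was read as OD600 at 20 h and expressed as % of the untreated control. Single pass.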

Row | SMILES | growth [%]
1 | COc1cc(OC)c(C(=O)Nc2ccc3c(c2)NC(=O)C(C)O3)cc1OC (centres undefined) + CCCCNC(=O)OCC#CI [3-iodo-2-propynyl butylcarbamate (IPBC)] | 95.1
2 | CCC1=CC=C(Cl)C(=C1NC(=O)C/2=N/N(C)C(=O)/C=C2)CC + CCCCNC(=O)OCC#CI [3-iodo-2-propynyl butylcarbamate (IPBC)] | 99.2
3 | COc1cccc(CN2CCC(NC(=O)c3ccnc(N(C)C)c3)CC2)c1 + CCCCNC(=O)OCC#CI [3-iodo-2-propynyl butylcarbamate (IPBC)] | 102
4 | CCOC(=O)c1c(C)[nH]c(C)c1S(=O)(=O)NCC(=O)N1c2ccccc2CC1C (centres undefined) + CCCCNC(=O)OCC#CI [3-iodo-2-propynyl butylcarbamate (IPBC)] | 111
5 | COc1cccc(CNCc2cccn2-c2sc(C)c(C)c2C(=O)O)c1 + CCCCNC(=O)OCC#CI [3-iodo-2-propynyl butylcarbamate (IPBC)] | 106
6 | CN(C)S(=O)(=O)c1cccc(CSc2ccc3c(c2)OCCCO3)c1 + CCCCNC(=O)OCC#CI [3-iodo-2-propynyl butylcarbamate (IPBC)] | 75.9
7 | CC(=O)NC(C(=O)N1CCN(Cc2nnc3n2CCCCC3)CC1)C(C)C (centres undefined) + CCCCNC(=O)OCC#CI [3-iodo-2-propynyl butylcarbamate (IPBC)] | 104
8 | CCCN(CCC)S(=O)(=O)c1ccc2c(c1)N(CC(=O)OC)C(=O)CS2 + CCCCNC(=O)OCC#CI [3-iodo-2-propynyl butylcarbamate (IPBC)] | 104
9 | Cn1cc(S(=O)(=O)N2CCOCC2)cc1C(=O)NCc1ccc(C(F)(F)F)cc1 + CCCCNC(=O)OCC#CI [3-iodo-2-propynyl butylcarbamate (IPBC)] | 115
10 | COc1ccc(CNS(=O)(=O)c2cc3nc(O)c(O)nc3cc2C)cc1 + CCCCNC(=O)OCC#CI [3-iodo-2-propynyl butylcarbamate (IPBC)] | 112
11 | CCNC(=O)NC(=O)CSc1nnc(-c2cccc(S(=O)(=O)N(CC)CC)c2)o1 + CCCCNC(=O)OCC#CI [3-iodo-2-propynyl butylcarbamate (IPBC)] | 37
12 | CC(=O)NC1=CC=C(C=C1)C(=O)CO\C2=C\O\C(=C/C2=O)CN3CCSCC3 + CCCCNC(=O)OCC#CI [3-iodo-2-propynyl butylcarbamate (IPBC)] | 94.5
13 | Cc1noc(C)c1CSCC(=O)OCC(=O)N1CCN(c2ccccc2)CC1 + CCCCNC(=O)OCC#CI [3-iodo-2-propynyl butylcarbamate (IPBC)] | 109
14 | Cc1ccccc1N(C)C(=O)c1cccc2c1SCCC2=O + CCCCNC(=O)OCC#CI [3-iodo-2-propynyl butylcarbamate (IPBC)] | 104
15 | COCc1c(C(=O)Nc2nc[nH]n2)sc2cccc(F)c12 + CCCCNC(=O)OCC#CI [3-iodo-2-propynyl butylcarbamate (IPBC)] | 99.3
16 | CCOC(=O)c1nc2ccccc2nc1Nc1cc(C)ccc1C + CCCCNC(=O)OCC#CI [3-iodo-2-propynyl butylcarbamate (IPBC)] | 103
17 | Nc1cc(N)nc(SC(C(=O)N2CCOCC2)c2ccccc2)n1 (centres undefined) + CCCCNC(=O)OCC#CI [3-iodo-2-propynyl butylcarbamate (IPBC)] | 108
18 | COC(=O)CNC(=O)CSc1nc(C2CC2)n(-c2ccccc2)n1 + CCCCNC(=O)OCC#CI [3-iodo-2-propynyl butylcarbamate (IPBC)] | 96.5
19 | Cc1ccc2c(c1)N(C(=O)Nc1ccc(Br)cc1)CCO2 + CCCCNC(=O)OCC#CI [3-iodo-2-propynyl butylcarbamate (IPBC)] | 71.2
20 | CC/1=C/C(=O)N(/C=N1)C(NC(=O)C2=CC=CC=C2)C(=O)C3=CC=CC=C3 (centres undefined) + CCCCNC(=O)OCC#CI [3-iodo-2-propynyl butylcarbamate (IPBC)] | 85.7

Row | SMILES | growth [%]
21 | O=C(NCCc1cccs1)c1cc(O)nc2ccccc12 + CCCCNC(=O)OCC#CI [3-iodo-2-propynyl butylcarbamate (IPBC)] | 96.2
22 | COc1ccc(CCNC(=O)c2ccc(Cn3cc(Cl)cn3)cc2)cc1 + CCCCNC(=O)OCC#CI [3-iodo-2-propynyl butylcarbamate (IPBC)] | 85.3
23 | Cn1cc(CCNC(=O)NC2CCOc3ccccc32)cn1 (centres undefined) + CCCCNC(=O)OCC#CI [3-iodo-2-propynyl butylcarbamate (IPBC)] | 105
24 | CNC(=O)\C1=C(/NCC2=CC=CO2)C3=CC=CC=C3[S]1(=O)=O + CCCCNC(=O)OCC#CI [3-iodo-2-propynyl butylcarbamate (IPBC)] | 99.9
25 | CCOC(=O)\C1=C(/COC(=O)C2=CC(=NC3=C2C(=NO3)C)C)NC(=O)NC1 + CCCCNC(=O)OCC#CI [3-iodo-2-propynyl butylcarbamate (IPBC)] | 103
26 | CCN(c1ccc(-c2csc(N3CCN(C)CC3)n2)cc1)S(C)(=O)=O + CCCCNC(=O)OCC#CI [3-iodo-2-propynyl butylcarbamate (IPBC)] | 85.1
27 | COC(CN(C)C(=O)c1cc2c(C)nc3ccccc3c2o1)OC + CCCCNC(=O)OCC#CI [3-iodo-2-propynyl butylcarbamate (IPBC)] | 82.2
28 | CC(C)C[C@@H](C(=O)Nc1cccnc1)N1Cc2ccccc2C1=O + CCCCNC(=O)OCC#CI [3-iodo-2-propynyl butylcarbamate (IPBC)] | 96
29 | CN1C(=O)N(C)\C(=C(C#N)/C1=O)OC2=CC=CC3=C2OC(C)(C)C3 + CCCCNC(=O)OCC#CI [3-iodo-2-propynyl butylcarbamate (IPBC)] | 102
30 | Cc1sc(NC(=O)c2cccc(NC(=O)C3CCCO3)c2)c(C#N)c1C (centres undefined) + CCCCNC(=O)OCC#CI [3-iodo-2-propynyl butylcarbamate (IPBC)] | 91.3
31 | CN(C)[S](=O)(=O)C/1=C/N(CC(=O)C2=C(C)[N](CC3CCCO3)C(=C2)C)C(=O)/C=C1 (centres undefined) + CCCCNC(=O)OCC#CI [3-iodo-2-propynyl butylcarbamate (IPBC)] | 102
32 | CN(C)CCSc1nnc2sc3ccccc3n12 + CCCCNC(=O)OCC#CI [3-iodo-2-propynyl butylcarbamate (IPBC)] | 86.6
33 | CC(Nc1cccc(C(N)=O)c1)C(=O)N1CCN(C(=O)c2ccco2)CC1 (centres undefined) + CCCCNC(=O)OCC#CI [3-iodo-2-propynyl butylcarbamate (IPBC)] | 104
34 | COC(=O)c1cc(S(=O)(=O)Nc2cc(C)cc(C)c2)cn1C + CCCCNC(=O)OCC#CI [3-iodo-2-propynyl butylcarbamate (IPBC)] | 114
35 | CCc1c(C)nc(SCC(=O)N2CCN(c3ccccc3OC)CC2)nc1O + CCCCNC(=O)OCC#CI [3-iodo-2-propynyl butylcarbamate (IPBC)] | 105
36 | Cc1cc(C(=O)OCC(=O)c2ccc[nH]2)c(C)n1Cc1cccs1 + CCCCNC(=O)OCC#CI [3-iodo-2-propynyl butylcarbamate (IPBC)] | 98.4
37 | N#Cc1ccc(Oc2ccc(S(=O)(=O)N3CCOCC3)cn2)cc1 + CCCCNC(=O)OCC#CI [3-iodo-2-propynyl butylcarbamate (IPBC)] | 100
38 | O=C(COC(=O)c1ccccc1NC(=O)c1ccsc1)NC1CCCC1 + CCCCNC(=O)OCC#CI [3-iodo-2-propynyl butylcarbamate (IPBC)] | 97.7
39 | COc1ccc(Cn2ccnc2SCC(=O)NC2CCCCC2)cc1 + CCCCNC(=O)OCC#CI [3-iodo-2-propynyl butylcarbamate (IPBC)] | 97.1

A second format for some results above:

| Row | SMILES | growth [%] |
| --- | --- | --- |
| 3 | COc1cccc(CN2CCC(NC(=O)c3ccnc(N(C)C)c3)CC2)c1 + CCCCNC(=O)OCC#CI [3-iodo-2-propynyl butylcarbamate (IPBC)] | 102 |
| 13 | Cc1noc(C)c1CSCC(=O)OCC(=O)N1CCN(c2ccccc2)CC1 + CCCCNC(=O)OCC#CI [3-iodo-2-propynyl butylcarbamate (IPBC)] | 109 |
| 17 | Nc1cc(N)nc(SC(C(=O)N2CCOCC2)c2ccccc2)n1 (centres undefined) + CCCCNC(=O)OCC#CI [3-iodo-2-propynyl butylcarbamate (IPBC)] | 108 |
| 24 | CNC(=O)\C1=C(/NCC2=CC=CO2)C3=CC=CC=C3[S]1(=O)=O + CCCCNC(=O)OCC#CI [3-iodo-2-propynyl butylcarbamate (IPBC)] | 99.9 |
| 29 | CN1C(=O)N(C)\C(=C(C#N)/C1=O)OC2=CC=CC3=C2OC(C)(C)C3 + CCCCNC(=O)OCC#CI [3-iodo-2-propynyl butylcarbamate (IPBC)] | 102 |
| 30 | Cc1sc(NC(=O)c2cccc(NC(=O)C3CCCO3)c2)c(C#N)c1C (centres undefined) + CCCCNC(=O)OCC#CI [3-iodo-2-propynyl butylcarbamate (IPBC)] | 91.3 |
| 31 | CN(C)[S](=O)(=O)C/1=C/N(CC(=O)C2=C(C)[N](CC3CCCO3)C(=C2)C)C(=O)/C=C1 (centres undefined) + CCCCNC(=O)OCC#CI [3-iodo-2-propynyl butylcarbamate (IPBC)] | 102 |
| 33 | CC(Nc1cccc(C(N)=O)c1)C(=O)N1CCN(C(=O)c2ccco2)CC1 (centres undefined) + CCCCNC(=O)OCC#CI [3-iodo-2-propynyl butylcarbamate (IPBC)] | 104 |
| 39 | COc1ccc(Cn2ccnc2SCC(=O)NC2CCCCC2)cc1 + CCCCNC(=O)OCC#CI [3-iodo-2-propynyl butylcarbamate (IPBC)] | 97.1 |
